This test addresses Myc-IRE1α (human) (UniProt O75460). The test is described as follows: co-IP; cells co-transfected with Myc-IRE1α and vector or Flag-Listerin constructs (HEK293T in the text, HEK293-TLR4 in the legend); lysed in IP buffer (1% Nonidet P-40, 50 mM Tris-HCl pH 7.4, 50 mM EDTA, 150 mM NaCl); antibody 1 h and protein A/G plus-agarose overnight; immunoblot.

Sequences of proteins named here, by UniProt entry; tags and fusion partners are left off. Residues count along the entry.
UniProt O75460, residues 19-977: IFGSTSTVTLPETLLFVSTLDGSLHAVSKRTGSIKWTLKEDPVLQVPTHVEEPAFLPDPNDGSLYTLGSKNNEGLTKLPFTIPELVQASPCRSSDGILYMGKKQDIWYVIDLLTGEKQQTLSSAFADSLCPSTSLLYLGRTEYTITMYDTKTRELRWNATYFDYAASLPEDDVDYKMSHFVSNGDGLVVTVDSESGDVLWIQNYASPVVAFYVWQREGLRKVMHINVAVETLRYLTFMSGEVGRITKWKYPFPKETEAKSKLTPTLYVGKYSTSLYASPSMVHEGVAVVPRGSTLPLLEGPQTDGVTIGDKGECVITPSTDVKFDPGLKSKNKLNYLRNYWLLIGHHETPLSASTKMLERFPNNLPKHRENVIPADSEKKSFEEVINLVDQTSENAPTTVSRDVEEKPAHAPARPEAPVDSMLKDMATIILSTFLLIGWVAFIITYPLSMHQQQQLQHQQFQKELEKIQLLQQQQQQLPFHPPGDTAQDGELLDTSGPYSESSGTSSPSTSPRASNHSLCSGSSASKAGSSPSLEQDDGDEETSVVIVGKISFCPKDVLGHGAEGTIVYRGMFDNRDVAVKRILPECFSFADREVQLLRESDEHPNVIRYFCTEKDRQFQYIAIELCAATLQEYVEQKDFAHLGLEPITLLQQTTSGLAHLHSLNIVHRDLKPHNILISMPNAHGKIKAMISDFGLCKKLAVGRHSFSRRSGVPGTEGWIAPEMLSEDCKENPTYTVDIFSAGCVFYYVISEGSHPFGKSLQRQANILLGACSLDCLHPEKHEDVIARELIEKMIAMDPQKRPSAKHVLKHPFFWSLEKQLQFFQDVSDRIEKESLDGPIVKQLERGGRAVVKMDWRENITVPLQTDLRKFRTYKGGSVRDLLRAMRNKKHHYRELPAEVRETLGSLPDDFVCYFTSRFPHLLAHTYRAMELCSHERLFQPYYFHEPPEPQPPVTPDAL
UniProt O94822: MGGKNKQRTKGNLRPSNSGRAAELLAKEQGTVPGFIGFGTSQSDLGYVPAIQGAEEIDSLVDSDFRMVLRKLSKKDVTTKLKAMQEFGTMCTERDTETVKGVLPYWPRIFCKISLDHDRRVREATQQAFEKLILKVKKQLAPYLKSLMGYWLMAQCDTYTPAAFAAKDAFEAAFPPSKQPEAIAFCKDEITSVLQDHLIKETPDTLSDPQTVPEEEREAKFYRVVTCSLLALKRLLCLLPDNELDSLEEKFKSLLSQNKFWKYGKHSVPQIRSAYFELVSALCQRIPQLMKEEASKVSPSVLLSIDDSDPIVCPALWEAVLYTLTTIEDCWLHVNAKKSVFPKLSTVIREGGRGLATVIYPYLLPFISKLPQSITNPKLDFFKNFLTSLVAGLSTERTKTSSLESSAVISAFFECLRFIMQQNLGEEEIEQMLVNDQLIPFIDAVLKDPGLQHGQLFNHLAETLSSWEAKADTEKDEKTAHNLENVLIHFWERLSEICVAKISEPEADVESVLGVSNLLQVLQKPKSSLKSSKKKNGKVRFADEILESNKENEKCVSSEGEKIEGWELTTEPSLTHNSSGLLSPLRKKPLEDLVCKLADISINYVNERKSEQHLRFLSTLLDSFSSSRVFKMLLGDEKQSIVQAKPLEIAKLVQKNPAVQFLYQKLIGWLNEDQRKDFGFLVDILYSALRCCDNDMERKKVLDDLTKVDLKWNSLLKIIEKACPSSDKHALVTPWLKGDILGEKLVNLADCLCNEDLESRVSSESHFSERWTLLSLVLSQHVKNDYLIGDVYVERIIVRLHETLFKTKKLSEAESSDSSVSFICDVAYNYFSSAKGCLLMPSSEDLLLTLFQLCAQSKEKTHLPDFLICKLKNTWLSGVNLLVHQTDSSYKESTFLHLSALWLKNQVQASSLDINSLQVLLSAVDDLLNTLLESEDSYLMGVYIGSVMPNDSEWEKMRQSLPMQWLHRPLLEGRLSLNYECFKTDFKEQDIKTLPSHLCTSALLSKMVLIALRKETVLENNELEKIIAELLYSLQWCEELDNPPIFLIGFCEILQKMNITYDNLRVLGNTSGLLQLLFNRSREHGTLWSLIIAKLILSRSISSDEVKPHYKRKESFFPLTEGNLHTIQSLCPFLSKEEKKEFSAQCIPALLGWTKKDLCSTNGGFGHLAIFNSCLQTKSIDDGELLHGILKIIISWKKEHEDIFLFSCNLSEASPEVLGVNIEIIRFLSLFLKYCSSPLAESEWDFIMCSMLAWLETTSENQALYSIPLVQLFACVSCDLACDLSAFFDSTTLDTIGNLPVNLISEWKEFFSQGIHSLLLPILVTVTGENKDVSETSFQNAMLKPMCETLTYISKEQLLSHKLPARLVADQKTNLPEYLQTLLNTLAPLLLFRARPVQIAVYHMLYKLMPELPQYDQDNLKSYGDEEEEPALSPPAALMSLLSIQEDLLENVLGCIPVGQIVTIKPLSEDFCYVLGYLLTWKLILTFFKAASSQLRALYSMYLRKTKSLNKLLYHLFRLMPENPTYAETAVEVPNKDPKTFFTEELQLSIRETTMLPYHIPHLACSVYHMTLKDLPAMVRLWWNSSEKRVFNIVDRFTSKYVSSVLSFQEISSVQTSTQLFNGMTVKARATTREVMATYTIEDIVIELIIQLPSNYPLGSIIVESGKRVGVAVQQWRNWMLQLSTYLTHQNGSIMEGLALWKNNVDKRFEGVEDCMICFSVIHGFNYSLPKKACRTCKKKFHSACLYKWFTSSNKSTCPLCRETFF

Results are given in words; binding and its absence hold for the method and conditions named. In cells and extracts the contact can be indirect. Some binding calls cover weakened binding; strength is not graded here.

As for “Flag-Listerin (from UniProt O94822 1-1766)”, the binding result was “binds”.

These data come from publication PMC12407295.
